{
  "source": "paper PMC3174182",
  "assay_in_all_cases": "FRET or BRET; FRET efficiency by donor (CFP) de-quenching after photobleaching of the acceptor (YFP), under TIRF illumination (plasma membrane), in living transfected cells co-expressing the CFP- and YFP-labeled proteins",
  "key": {"[1]": {"target": "wild-type hERG channel labeled with CFP at the C-terminus (hERG 1158CFP) (human) (UniProt Q12809)"}, "[2]": {"target": "hERG Δ2-135/Y542C channel C-terminally labeled with CFP (human) (UniProt Q12809)"}, "[3]": {"target": "wild-type hERG channel labeled with CFP at the C-terminus (hERG 1158CFP) (human) (UniProt Q12809)", "remark": "listed apart in the source"}},
  "note": "Where two headings read alike, the source gives them in different places. These are yes or no findings as the source states them, for the method shown. In cells and extracts the contact can be indirect. For part of these data: Where a sequence is shown, tags or fusion partners need not be part of it.",
  "data": [
    {"molecule": "recombinant hERG N-terminal eag domain fragment fused to eYFP (N1-135/YFP) (from UniProt Q12809 1-135) (domain or fragment)", "values": [
      {"measurement": "binding", "setting": "[1]", "result": "no binding"},
      {"measurement": "binding", "setting": "[2]", "result": "no binding"}
    ]},
    {"molecule": "TRH receptor C-terminally labeled with YFP (TRH-R 412YFP) (receptor, UniProt Q01717 1-412) MENETVSELNQTELPPQVAVALEYQVVTILLVVVICGLGIVGNIMVVLVVMRTKHMRTATNCYLVSLAVADLMVLVAAGLPNITDSIYGSWVYGYVGCLCITYLQYLGINASSCSITAFTIERYIAICHPIKAQFLCTFSRAKKIIIFVWAFTSIYCMLWFFLLDLNISTYKDAIVISCGYKISRNYYSPIYLMDFGVFYVMPMILATVLYGFIARILFLNPIPSDPKENSKTWKNDSTHQNKNMNLNTTNRCFNSTVSSRKQVTKMLAVVVILFALLWMPYRTLVVVNSFLSSPFQENWFLLFCRICIYLNSAINPVIYNLMSQKFRAAFRKLCNCKQKPTEKAANYSVALNYSVIKESDRFSTELDDITVTDTYVSTTKVSFDDTCLASEKNGPSSCTYGYSLTAKQEKI", "values": [
      {"measurement": "binding", "setting": "[3]", "result": "no binding"}
    ]}
  ]
}
